Experimental data taken from doi:10.1101/2023.05.08.539811.
Results are given in words; binding and its absence hold for the method and conditions named.

Target: full-length human GDAP1 (ganglioside-induced differentiation-associated protein 1) (human) (UniProt Q8TB36)
Assay: SEC-SAXS

B1: full-length human GDAP1 (ganglioside-induced differentiation-associated protein 1) (protein, UniProt Q8TB36 1-358)
chain: MAERQEEQRGSPPLRAEGKADAEVKLILYHWTHSFSSQKVRLVIAEKALKCEEHDVSLPLSEHNEPWFMRLNSTGEVPVLIHGENIICEATQIIDYLEQTFLDERTPRLMPDKESMYYPRVQHYRELLDSLPMDAYTHGCILHPELTVDSMIPAYATTRIRSQIGNTESELKKLAEENPDLQEAYIAKQKRLKSKLLDHDNVKYLKKILDELEKVLDQVETELQRRNEETPEEGQQPWLCGESFTLADVSLAVTLHRLKFLGFARRNWGNGKRPNLETYYERVLKRKTFNKVLGHVNNILISAVLPTAFRVAKKRAPKVLGTTLVVGLLAGVGYFAFMLFRKRLGSMILAFRPRPNYF
B1 was tested, and the binding was “no binding”.
